Reference: US20130015204A1, “SINGLE-USE CONTAINERS AND USES THEREOF” (priority 2009, published 2013)
Some entries share one result that the patent states for a list of compounds. At least one structure is not confirmed: it was looked up by name or label, or the drawing left a doubt.

Test: Long term storage stability studies: HPLC, solutions stored at RT and 4° C. for up to 4 months
Conditions: water as solvent
Method: Heat was applied by different methods, including placing the solution in a test tube in a bath of hot water (80° C. or 100° C.) for 15 minutes, or by mixing a concentrated solution with hot water or hot coffee (80° C. or 100° C. for both) for an equivalent time. Long term stability studies were carried out by storing individual vitamin solutions at room temperature and at 4° C. for up to 4 months and sampling these solutions at various intervals. Degradation was assessed by the change in peak area of the HPLC peak specific to each particular compound.
Vitamin solutions were prepared as for the Heat Stability Studies.
Replicate aliquots of these solutions were placed in four 15 mL Falcon tubes. Two of these tubes were stored on a shelf at room temperature (RT) in the laboratory and two in the cold room (4° C.).
At 0, 0.5, 1, 1.5, 2, 3.5, and 4 months, samples were taken from each vial for
HPLC analysis. The high concentration vitamin samples (vitamins BI, B3, B5, and B6) were diluted to 1:250 with Milli-Q water before injection and the low concentration vitamin samples (vitamins B2, B7, B9, and B12) were injected undiluted.
Samples from each of the duplicate solutions described above were injected onto the HPLC in duplicate. HPLC conditions were as described above.
Duplicate injections of the two samples were made and the mean of the four results was reported.
The percentage change in individual vitamin concentrations relative to the control sample was calculated as: 100×(Atest−Acontrol)/Acontrol, where Atest and Acontrol are peak area ratios (analyte/intemal standard) for the test and control solutions respectively.
For the heat stability studies, statistical analysis was performed by Students t-test. For the storage stability studies, statistical analysis was performed by univariate ANOVA (General Linear Model). All statistical analyses were performed with SPSS 16.

Compound	Time solutions can be stored at room temperature
NC(=O)c1cccnc1 [Vitamin B3, niacinamide]	at least 4 months
Cc1ncc(CO)c(CO)c1O.Cl [Vitamin B6, pyroxidine hydrochloride]	at least 4 months
calcium (+)-pantothenate [Vitamin B5]	at least 4 months
cyanocobalamin [Vitamin B12]	at least 4 months
